Experimental data published in the supplement of paper PMC8166895.
Where a name gives a salt, the structure may show the parent alone. The list shows a part of the results. Most values lie at the level of the controls, where differences are scatter.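 Melting temperature was read by differential scanning fluorimetry in a single-replicate pilot screen of a library of approved drugs and clinical or known-target compounds. Compounds raising the melting point by at least 2 °C were the top stabilizing hits, and negative shifts mean destabilization.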

What follows are compounds tested on SARS-CoV-2 main protease (Mpro, nsp5) (assay: thermal shift ΔTm of Mpro relative to plate average Tm; higher = stronger thermal stabilization of Mpro (binding)). Conditions: 10 µM; protein concentration 1 µM.

| SMILES | thermal shift ΔTm of Mpro |
| --- | --- |
| NC(=O)CCCSc1nc(N)nc(-c2c(Cl)cc3c4c(cccc24)COC3)n1 | -0.233 °C |
| Cc1ccc(C)c(OCCn2cc(C(=O)O)c3ccccc32)c1 | 0.131 °C |
| CC(C)c1onc(-c2c(Cl)cccc2Cl)c1COc1ccc(/C=C/c2cccc(C(=O)O)c2)c(Cl)c1 | -0.266 °C |
| CO[C@@H](C)Cn1c(=O)n(C)c2cnc3ccc(-c4cncc(C(C)(C)O)c4)cc3c21 | 0.0642 °C |
| Nc1nc(Nc2ccc(S(N)(=O)=O)cc2)nn1C(=O)c1c(F)cccc1F | 0.145 °C |
| CC(C)OC(=O)[C@H](C)N[P@](=O)(CO[C@H](C)Cn1cnc2c(N)ncnc21)Oc1ccccc1 [Tenofovir Alafenamide (GS-7340)] | -0.0575 °C |
| C=CCN1CCCC1CNC(=O)c1cc2nn[nH]c2cc1OC (stereo not drawn) [Alizapride HCl] | -0.0278 °C |
| CC(=O)O[C@H]1CC[C@@]2(C)C(=CC[C@@H]3[C@@H]2CC[C@]2(C)C(=O)CC[C@@H]32)C1 [Dehydroepiandrosterone acetate] | 0.0354 °C |
| CC1=C(C(=O)OCCN(Cc2ccccc2)c2ccccc2)C(c2cccc([N+](=O)[O-])c2)C(P2(=O)OCC(C)(C)CO2)=C(C)N1 (stereo not drawn) [Efonidipine] | -0.274 °C |
| CCCNS(=O)(=O)Nc1ncnc(OCCOc2ncc(Br)cn2)c1-c1ccc(Br)cc1 [Macitentan] | -0.219 °C |
| Oc1ccc(-c2cc(=S)ss2)cc1 [Desmethylanethol trithione] | 0.0489 °C |
| CCCOc1ccc(CCc2nc3cc(-c4c(C)noc4C)ccc3n2CCN2CCOCC2)cc1 [PF-CBP1 hydrochloride] | -0.0307 °C |
| CCOc1nc2cccc(C(=O)OC(C)OC(=O)OC3CCCCC3)c2n1Cc1ccc(-c2ccccc2-c2nn[nH]n2)cc1 (stereo not drawn) [Candesartan Cilexetil] | -0.704 °C |
| O=C(O)[C@@H](S)[C@@H](S)C(=O)O [Succimer] | 0.535 °C |
| CCCCNc1ncc(-c2ccc(CN3CCOCC3)cn2)c(NC2CCC(O)CC2)n1 (stereo not drawn) | -0.0604 °C |
| O=C(COCC(=O)N1CCN(C(c2ccccc2)c2ccccc2)CC1)Nc1ccc(Cl)cc1C(=O)O [TM5275 sodium] | -0.213 °C |
| Cc1ccc(NC(=S)NNc2c([N+](=O)[O-])cc(C(F)(F)F)cc2[N+](=O)[O-])cc1Cl | 0.263 °C |
| CCN1CCC[C@H]1CNC(=O)c1cc(S(N)(=O)=O)ccc1OC [Levosulpiride] | 0.187 °C |
| Nc1ccc(S(N)(=O)=O)cc1 [Sulfanilamide] | -0.199 °C |
| COc1ccc(/C=C/C(=O)C2(C(=O)/C=C/c3ccc(OC)c(OC)c3)CCCCC2)cc1OC | -0.246 °C |
| Cn1c(=O)c(F)c(Nc2ccc(I)cc2F)c2c(=O)n(C[C@@H](O)CO)cnc21 | -0.0113 °C |
| NCCNc1ccc(NCCN)c2c1C(=O)c1ccncc1C2=O [Pixantrone dimaleate] | 0.315 °C |
| CC(C)CNc1nc(N2CCN(CC3CCCOC3)CC2)ncc1C(=O)NCc1ccccc1 (stereo not drawn) | -0.319 °C |
| O=c1[nH]c(=O)n([C@H]2C[C@H](O)[C@@H](CO)O2)cc1/C=C/Br [Brivudine] | 0.0223 °C |

| SMILES | thermal shift ΔTm of Mpro |
| --- | --- |
| COc1ccc(-c2cc3c(C)nc(N)nc3n([C@H]3CC[C@H](OCCO)CC3)c2=O)cn1 | -0.176 °C |
| CC1=NN(c2ccc(C(=O)O)cc2)C(=O)C1=Cc1ccc(-c2cc(C)c(C)cc2[N+](=O)[O-])o1 | 0.0905 °C |
| COc1cc[nH]c(=O)c1C#N [4-Methoxy-2-oxo-1,2-dihydro-pyridine-3-carbonitrile] | 0.305 °C |
| CCOC(=O)c1ccc(C#Cc2ccc3c(c2)C(C)(C)CCS3)nc1 [Tazarotene] | -0.313 °C |
| CC(C)N(CCC(=O)c1ccc2ccccc2c1)Cc1ccccc1 | 0.229 °C |
| CC(C)(C)C#Cc1cc(N(C(=O)[C@H]2CC[C@H](C)CC2)[C@H]2CC[C@H](O)CC2)c(C(=O)O)s1 [VX-222 (VCH-222, Lomibuvir)] | 0.206 °C |
| CCC(C)(C)c1ccc(CC(C)CN2C[C@@H](C)O[C@@H](C)C2)cc1 (stereo partly drawn) [Amorolfine HCl] | 0.00535 °C |
| O=C(O)c1cc(=O)c2c(OCC(O)COc3cccc4oc(C(=O)O)cc(=O)c34)cccc2o1 [Sodium cromoglycate] | 0.0904 °C |
| Oc1c(Cl)cc(Cl)cc1Sc1cc(Cl)cc(Cl)c1O [Bithionol] | 0.205 °C |
| C=CCc1ccccc1OCC(O)CNC(C)C (stereo not drawn) [Alprenolol] | 0.0956 °C |
| CCCCOc1ccc(CC(=O)NO)cc1 [Bufexamac] | -0.0643 °C |
| Cc1cc(C)cc(NC(=O)Cc2ccc(OC(C)(C)C(=O)O)cc2)c1 [Efaproxiral Sodium] | -0.0896 °C |
| Cc1ccc(O)c([C@H](CCN(C(C)C)C(C)C)c2ccccc2)c1 [Tolterodine tartrate] | -0.0723 °C |
| CCCCCCCCCCCCCCCCO [1-Hexadecanol] | -0.207 °C |
| C[C@H]1c2cccc(O)c2C(O)=C2C(=O)[C@]3(O)C(O)=C(C(N)=O)C(=O)[C@@H](N(C)C)[C@@H]3[C@@H](O)[C@@H]21 [Doxycycline Hyclate] | 0.0283 °C |
| C[C@H]1c2cccc(O)c2C(O)=C2C(=O)[C@]3(O)C(O)=C(C(N)=O)C(=O)[C@@H](N(C)C)[C@@H]3[C@@H](O)[C@@H]21 [Doxycycline HCl] | -0.137 °C |
| Cc1c(O)cccc1C(=O)N[C@@H](CSc1ccccc1)[C@H](O)CN1C[C@H]2CCCC[C@H]2C[C@H]1C(=O)NC(C)(C)C [Nelfinavir Mesylate] | -0.109 °C |
| CC(C)NCCCn1c(Sc2cc3c(cc2I)OCO3)nc2c(N)ncnc21 | -0.143 °C |
| Nc1ccn([C@@H]2O[C@H](CO)[C@@H](O)[C@H]2O)c(=O)n1 [Cytidine] | 0.0474 °C |
| CN(C)CCC(c1ccccc1)c1ccccn1 (stereo not drawn) [Pheniramine Maleate] | 0.0584 °C |
| Cc1cccc(Nc2nc(-c3ccncc3)cs2)c1 | -0.143 °C |
| CCOc1ccc(Cc2cc([C@@H]3O[C@H](CO)[C@@H](O)[C@H](O)[C@H]3O)ccc2Cl)cc1 [Dapagliflozin] | -0.0272 °C |
| CCOc1ccc(Cc2cc([C@@H]3O[C@H](CO)[C@@H](O)[C@H](O)[C@H]3O)ccc2Cl)cc1 [Dapagliflozin ((2S)-1,2-propanediol, hydrate)] | 0.0114 °C |
| CC(C)(C)NC(=O)c1cncn1C1CCN(c2ccc(-c3nnc(C(F)(F)F)o3)cn2)CC1 | -0.00432 °C |

3 entries from above, bar-delimited:
SMILES | thermal shift ΔTm of Mpro
CCC(C)(C)c1ccc(CC(C)CN2C[C@@H](C)O[C@@H](C)C2)cc1 (stereo partly drawn) [Amorolfine HCl] | 0.00535 °C
O=C(O)c1cc(=O)c2c(OCC(O)COc3cccc4oc(C(=O)O)cc(=O)c34)cccc2o1 [Sodium cromoglycate] | 0.0904 °C
Oc1c(Cl)cc(Cl)cc1Sc1cc(Cl)cc(Cl)c1O [Bithionol] | 0.205 °C
